Out of some 31,000 sequences screened, about 1,400 (4.5%) were called active.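 How the source made its calls: active means median seed-adjusted z-score above 1 or below -1; inactive means the rest.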 Some of the results follow.
Experiment: Novel Modifiers of Survival Motor Neuron (SMN) Protein: Gene Identification via Genome-wide siRNA Screen;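 further: luminescence tracks full-length SMN protein made from the SMN2 reporter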
Conditions: HEK293T SMN2-luciferase reporter, siRNA knockdown, 72 h; actives lie on both sides
Summary of the method: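 siRNA screen, 10418 genes ×3 siRNAs; 1 pmol/well, lipid reverse transfection into HEK293T SMN2-luc reporter line. 72 h, 37 °C, 5% CO2; ONE-Glo readout. Data: neg-ctrl normalized, log10, MAD; hit = MAD >1.0 or < -1.0.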

Sequence | median seed-adjusted z-score
GCACCAGCAUUAGAUGUCATT against ESAM | inactive: 0.314
GAAUUCAGCAUGACCGAUATT against GABPA | active: 1.43
GGCUUGAGAGCUUACAUCATT against PPP2R5C | active: 1.14
GCUUUGUAGAAUUUGCAGATT against TRNAU1AP | inactive: 0.52
GCAUCGUCUUUGACAUUUUTT against SHROOM2 | inactive: 0.11
GCUGCUCCCGGAAAUGCAATT against ISOC2 | inactive: -0.599
CAACAGUGCCUUACAUUGATT against PRSS36 | inactive: 0.589
GCAUCGAGAUGGACACGCUTT against LAMA5 | inactive: 0.229
CCAUGCCCGAAGUUAUCAATT against PNLIPRP3 | inactive: -0.287
CCAGUGAACUGUUAUCAAATT against PLAG1 | inactive: 0.859
CGGCAGCUGAUAUUUUCAATT against RAX | inactive: -0.176
GCCUCUCGCAGAUAACCAATT against DUSP18 | inactive: 0.13
GGGACUAUGUGCUAUGUCATT against SMO | inactive: -0.457
CCAAUAAGGACUACGCUGATT against DSG3 | inactive: 0
AAUUGACUCCGGACAGAAATT against OSR2 | inactive: 0.603
CAGCCUGUCUCGAUAUAGATT against NOP58 | inactive: 0.101
AGAGGAUGCUUCGAGCUGATT against SHC2 | inactive: -0.207
GCGUAAUUUGGACCUCUUUTT against ZDHHC21 | inactive: 0.216
CCAUGUUACUUCUCUGAGUTT against AQP1 | inactive: 0.274
ACAUCGUCCGACUACAUGATT against CAMK2A | inactive: 0.396
GGAUGGGUGAUGUAUGUCUTT against MALL | inactive: -0.477
GUCUCGUCCAAUUUCUAUATT against HOXA11 | inactive: -0.222

Sequence | median seed-adjusted z-score
AGACCUCGUGUAUAUAAAATT against GLIS1 | inactive: 0.838
GCAACUUAAUUGCUUCCGATT against MTR | inactive: -0.0696
GCAAAGAGAGUUACUCUAUTT against HIST1H2BO | inactive: 0.634
CCACCUCAGUGCUCAAGAATT against CD81 | inactive: 0
GCUUCCUGAUUGAGAUUCATT against CAV1 | inactive: 0
CAAUGCCGCCUUCAACUUUTT against TACR2 | inactive: 0.201
GGACAGAGGCUAUUCAACATT against PRODH | inactive: 0.497
GAACCAUACUAUUUGCUUUTT against ATG5 | inactive: -0.0597
CCAUGUCCAUCGUUGCUGUTT against FPR1 | inactive: 0.0229
AGAUUGUAGUUGUGGAUCATT against CDH15 | inactive: 0
CGCCCAUUCUUCAAUGUCATT against SIAH1 | active: 1.5
GCAGUGUUUUUAAGUGAUATT against ZNF764 | inactive: 0.184
AGAUCGCAGAGAACGUGGATT against STX1A | inactive: 0
GGCAUAAGAUAUUACCGUUTT against ABCA13 | inactive: 0.238
CAAAAUCGAGAAGAAGUAUTT against TAGLN | inactive: 0.0485
ACACUACAUCGUUUAUUUUTT against FOXD4L2 | inactive: -0.118
GGAUCUUCCUUAUUACUCUTT against UBE4A | inactive: -0.285
GCAACACCACAGUUUAUCATT against GABPB2 | inactive: 0.441
GGAAUAGACUUUCGGGAAATT against RAB27B | inactive: 0
CUCCUUCAUUGGUAUGGAATT against ACTC1 | inactive: 0
CAUCCGCAAGGCUCACAAUTT against ZBTB3 | inactive: -0.0419
CCUUCUCUCUACGCGACUATT against ZBTB45 | inactive: 0

2 entries from above, tab-delimited.
Sequence	median seed-adjusted z-score
GGCAUAAGAUAUUACCGUUTT against ABCA13	inactive: 0.238
CAAAAUCGAGAAGAAGUAUTT against TAGLN	inactive: 0.0485

Next part

Sequence | median seed-adjusted z-score
CUCGUUAUCUUGAAAAGCATT against DHRS3 | inactive: 0.175
GGCCCUGGGAAUUUACAGATT against MLN | inactive: -0.422
CAGUAUCUGUGAUACUCAUTT against CYP26A1 | inactive: 0.0569
CCAAAGACCCGGACAAGCATT against OTP | inactive: 0.00717
AGACAGUUUGAGCACAUUUTT against ARL14 | inactive: 0.417
GUGCUGCACUUAGCCCUGATT against AVPR1B | inactive: -0.423
GGAAUCUACUCUCACCAAATT against HYOU1 | inactive: 0.0557
GCAGUAAGGUUGAUGCUCATT against AFM | inactive: 0
GCCUCUUCUUUUUGAUGUATT against MRLC2 | inactive: -0.492
GUAUCUCUGUGCGCACAAATT against ZNF648 | inactive: -0.000686
GUACUGCCUUGAUAACCCATT against PANK1 | inactive: -0.329
GGAUUUCCAAGAGCAAGGATT against PTK7 | inactive: 0.548
CCAUGAUUGUGAACAAUCUTT against CACYBP | inactive: -0.33
GAUCUACUGUGAUGCCGUUTT against L3MBTL2 | inactive: -0.312
GGAACAUAAUGAUAAAGCATT against DNTTIP1 | inactive: -0.33
CAGCCCUUCCUAAAAGUAATT against ABLIM2 | inactive: -0.26
GGUGGUAUGGAGUCAGUGATT against SLC6A3 | inactive: 0.457
GGUGCUACGUUAGACCAGUTT against SNRPA1 | active: -2.71
CGGAUUAGAUGUUGCUAUATT against DUSP28 | inactive: 0
GAGACAGAGUAGUCAAAUUTT against NT5E | inactive: 0.199
CGUUUCUCAUAAAGUGAUATT against HELT | inactive: -0.192
GAAACAACAUAUAUGUGAUTT against ZNF24 | inactive: 0.388

Quoted from the listing.
Entry for GGAAUCUACUCUCACCAAATT against HYOU1 under median seed-adjusted z-score: inactive: 0.0557
Entry for CAGCCCUUCCUAAAAGUAATT against ABLIM2 under median seed-adjusted z-score: inactive: -0.26
Entry for GCAGUAAGGUUGAUGCUCATT against AFM under median seed-adjusted z-score: inactive: 0
Entry for CGUUUCUCAUAAAGUGAUATT against HELT under median seed-adjusted z-score: inactive: -0.192

Later entries:

Sequence | median seed-adjusted z-score
GCCCUGACCAGGUUAUAGATT against IPO4 | inactive: -0.0188
ACCGAGAGAUGGUAUAUGATT against SUPT4H1 | active: -1.01
GCAAUCGGGUGGUAUCAUATT against COPS5 | inactive: -0.124
GCAACUACGUGUUCUCUGATT against MUC5B | inactive: 0.141
GCUGGAGUCAGUUUAGUGATT against BCL2L1 | inactive: 0.0801
GACUCUUCAGGCUUCAGAATT against ZFP91 | inactive: 0.0597
GCUUAUUCCUACUCCUAUUTT against PTPRT | inactive: -0.323
GUCCCGUGUUAAAAGAAAATT against PCSK7 | inactive: 0
GGACAUUCAAUUCAAACCATT against SMAD4 | inactive: 0.0746
CGGAGGUGUCUGAACUAAATT against TPM4 | inactive: -0.407
CCAUAAUAUCUGCCGAACATT against MBNL1 | inactive: 0.658
GGAUUGAACGGCCUCAUGATT against TRPC6 | inactive: -0.527
AAGAGAUUUUUGUAACUGATT against BCL2L14 | inactive: -0.859
UAUUAACCAUGGAACCUUATT against USP49 | inactive: 0.549
CAAAACAGACCGAAAGAAATT against DBX2 | inactive: 0.244
CUAGUGUGAUGGACAGACATT against RCOR2 | inactive: -0.129
GCAGCAAGAAGUAACGGAATT against ADRBK2 | inactive: 0.148
GCGGUUGGCACUUCGAGAATT against HRK | inactive: 0.217
CAAGACACCUGGGAAGAAATT against PTHLH | inactive: 0.00556
CCUCAGUUAUAAACAAGUATT against ZNF585A | inactive: -0.168
CGACCUUGGAGAACUACUATT against PROX2 | inactive: -0.825
AAGACUCACUUGUUCAACATT against ZNF772 | inactive: 0.817

Sequence | median seed-adjusted z-score
GGAAUAUGGAACUCACAUATT against CELSR3 | inactive: 0
GCCUUUAGCAGGUACUCAATT against ZNF429 | inactive: 0.479
UGCAAAAAGUGCUGAAAUATT against MOCS2 | inactive: 0.0327
CAGCUACCGGAAGCAGGAATT against CCL21 | inactive: -0.227
CAGUCCACAUUUAACGAUUTT against RAP1B | inactive: -0.0262
GGAUGAAGAAGGCCGGAAATT against POLG2 | inactive: 0
GGACAUAAGAAAGCUCGAATT against SLC12A6 | inactive: 0.155
CUAGAGGACUGGUUCGGGATT against CDK2AP1 | inactive: 0.168
GGAGUGCCCACAGUCAGAATT against SMUG1 | active: -1.38
GGAACAAGGUACCACGAAATT against DHX16 | inactive: 0.102
AGAGGAUCGGCUUGAACAATT against FOXC1 | inactive: -0.447
GGGUCUUCGUCAUGCUCUATT against GPR142 | inactive: -0.0636
GAUCUACCCAGAUCAGAAATT against CHI3L2 | inactive: 0.374
GGAUUUCGAUUGCAUCAUUTT against LGI1 | inactive: -0.19
CCAGGAUCGUGAUAACUGUTT against USP6 | inactive: -0.285
CCCGGUUACCCUUAAGUUATT against DDX56 | inactive: 0.904
CCAUAGUCCAAGGCCGUUATT against HARS2 | inactive: 0
GAAUCAGAAUACGUAGGAATT against PCDHA2 | inactive: 0.803
GCGACUGAUUGAGAAGUCATT against TJP3 | inactive: -0.183
CCUUCUCAACAUAGGAUAATT against ZNF257 | inactive: 0.306

Reference: PubChem BioAssay AID1347426 (Functional Genomics Laboratory (NCATS/FGL), 2020)
